# Laboratory results: PubChem BioAssay AID743121 (NCATS, 2013)
# Assay: 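Knock-downs that sensitise breast cancer cells to camptothecin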 (primary screen)
# Cells: MDA-MB-231 cells, a human breast cancer line
# Reagents: single siRNA against human genes, 20 nM siRNA (0.8 pmol per well)
# Time to read-out: 120 h (drug added 48 h after transfection, read 72 h later)
# Challenge: camptothecin 20 nM (about EC30) for 72 h; vehicle 0.1% DMSO in parallel plates
# Detection: 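Cell viability by ATP luminescence (CellTiter-Glo) as % of non-targeting siRNA wells, and the log2 ratio of viability without drug over viability with camptothecin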
# Scale: log2 vehicle/camptothecin viability: higher = stronger sensitisation to camptothecin
# Hit rule: 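Active genes have an RSA gene-level p-value below 0.001, computed from the ratios of their separate siRNAs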
# Here is an unselected part of about 26,000 deposited reagents. Over the whole deposit, 167 (0.63%) are marked active. 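Calls are per gene from RSA p-values that are not deposited; an individual active-marked siRNA can sensitise only weakly.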 Unmarked entries are inactive. Reagents against one gene are numbered here. Not all columns of the deposit are shown.
gene symbol,reagent no.,log2 vehicle/camptothecin viability
RAB22A (GeneID 57403),1,-0.0265
RAB22A (GeneID 57403),2,-0.118
RAB22A (GeneID 57403),3,-0.478
RAB22A (GeneID 57403),4,-0.363
RPL38 (GeneID 6169),1,-0.629
RPL38 (GeneID 6169),2,-0.485
RPL38 (GeneID 6169),3,-0.24
RPL38 (GeneID 6169),4,-0.704
RAD51AP1 (GeneID 10635),1,-0.212
RAD51AP1 (GeneID 10635),2,-0.31
RAD51AP1 (GeneID 10635),3,-0.287
RAD51AP1 (GeneID 10635),4,-0.341

Copied from the listing, 5 entries:
gene symbol,reagent no.,log2 vehicle/camptothecin viability
RPL38 (GeneID 6169),3,-0.24
RPL38 (GeneID 6169),4,-0.704
RAD51AP1 (GeneID 10635),1,-0.212
RAD51AP1 (GeneID 10635),2,-0.31
RAD51AP1 (GeneID 10635),3,-0.287

More reagents follow:
gene symbol,reagent no.,log2 vehicle/camptothecin viability
YARS2 (GeneID 51067),1,-0.139
YARS2 (GeneID 51067),2,-0.155
YARS2 (GeneID 51067),3,-0.158
YARS2 (GeneID 51067),4,-0.836
ZRANB2 (GeneID 9406),1,-0.605
ZRANB2 (GeneID 9406),2,-0.0275
ZRANB2 (GeneID 9406),3,-0.39
ZRANB2 (GeneID 9406),4,-0.199
GK (GeneID 2710),1,-0.05
GK (GeneID 2710),2,-0.31
GK (GeneID 2710),3,-0.226
GK (GeneID 2710),4,-0.0388
GNRH1 (GeneID 2796),1,-0.336
GNRH1 (GeneID 2796),2,-0.201
GNRH1 (GeneID 2796),3,-0.043
BRF2 (GeneID 55290),1,0.154
BRF2 (GeneID 55290),2,-0.725
BRF2 (GeneID 55290),3,-0.0164
BRF2 (GeneID 55290),4,-0.143
